In this test the target is T1, YscM1 (Yersinia enterocolitica) (UniProt Q7BFA3).
T1 sequence: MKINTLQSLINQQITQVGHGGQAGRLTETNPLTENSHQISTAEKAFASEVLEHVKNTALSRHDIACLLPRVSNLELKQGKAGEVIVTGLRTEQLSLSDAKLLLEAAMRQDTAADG
The test can be described thus: native gel or EMSA; both purified. (A gel shift assay detects complexes by their altered migration in electrophoresis.)

These are yes or no findings as the source states them, for the method shown. Binding can be weak; no strength is given.

Regarding “SycO (Yersinia enterocolitica type three secretion chaperone SycO)”, the binding result is “binds”.
